# Source: patent US20220220215A1
# Amino acid sequences for entries named in this document (tags omitted). A change or cut given only in a name is not applied to a line headed by its entry.
# UniProt Q07011: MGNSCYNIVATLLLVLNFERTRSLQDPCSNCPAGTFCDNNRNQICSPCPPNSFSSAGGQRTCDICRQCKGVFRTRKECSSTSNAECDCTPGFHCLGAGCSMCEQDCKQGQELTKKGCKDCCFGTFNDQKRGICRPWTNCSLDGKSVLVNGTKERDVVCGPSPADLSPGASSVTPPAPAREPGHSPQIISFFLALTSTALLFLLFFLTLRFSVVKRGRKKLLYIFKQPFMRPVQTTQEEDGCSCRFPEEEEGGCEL
# No constants are given. Whether binding was seen depends on the method and setting. Some results given as binding are weak or reduced against the parent protein; the word gives no strength. Tags and fused reporters may be left off the sequences shown.
# Target: human CD137 expressed on cells (human) (UniProt Q07011)
# Experiment: FMAT (Mirrorball), His-tagged sample on CHO human CD137 cells
row,binding,Binder
1,binds,TPP-1023: CD137A -6GS-HSA3-6GS-PDA-His (bispecific antibody) EVQLVESGGGLVQPGGSLRLSCAASGFTLSNYWMNWVRQAPGKGLEWVANINQDGSERYYVDSVKGRFTISRDNAKNSLYLQMNSLRAEDTAVYYCARGGEGYGVDHYGLDVSGQGTTVTVSSGGGGSGGGGSGGGGSGGGGSGGGGSGGGGSEVQLLESGGGLVKPGGSLRLSCAASGFTVSSYTMNWVRQAPGKGLEWVSSISSSGRYIYYADSVKGRFTISRDNAKNSLYLQMNSLRAEDTAVYYCARDPRMVGNPHEFDIWGQGTMVTVSSGGGGSGGGGSGGGGSGGGGSGGGGSGGGGSEVQLVESGGGLVQPGRSLRLSCAASGFTFDDYALHWVRQAPGKDLEWVSGISWNGGSYGYADSVKGRFTISRDNAKNSLYLQMNSLRAEDTALYYCVREKGPGLTGSTADYYGLDAWGQGTMVTVSSAAAHHHHHH
2,binds,TPP-971: PDA2-6GS-HSA2-6GS-172E1-13-His (bispecific antibody) EVQLVESGGGVVRPGGSLRLSCAASGFTFDDYAMSWVRQAPGKGLEWVSGITWNAGSTGYADSVKGRFTISRDNAKNSLYLQMNSLRAEDTALYYCVRDKYSYAWSYDDFDIWGQGTMVTVSSGGGGSGGGGSGGGGSGGGGSGGGGSGGGGSEVQLVESGGGLVKPGGSLRLSCAASGFTFSNYNMNWVRQAPGKGLEWVSSISSAGTHIYYADSVKGRFTISRDNAKNSLYLQMNSLRAEDTAVYYCARDPHSTGWYKDFDYWGQGTLVTVSSGGGGSGGGGSGGGGSGGGGSGGGGSGGGGSEVQLVESGGGVVQPGGSLRLSCAASGFTFSNYGMHWVRQAPGKGLEWVAVISNDGNTKTYADSVKGRFTISRDNSKNTLYLQMNSLRAEDTAVYYCAQDETTTVTASYYFDYWGQGTLVTVSSAAAHHHHHH
3,binds,TPP-1010: PD138G7(G109D)-6GS-HSA2-6GS- CD137D -His (bispecific antibody) EVQLVESGGGVVRPGGSLRLSCAASGFTFDDYAMSWVRQAPGKGLEWVSGITWNGGSTGYADSVKDRFTISRDNAKNSLYLQMNSLRAEDTALYYCVRDKYSYAWSYDDFDIWGQGTMVTVSSGGGGSGGGGSGGGGSGGGGSGGGGSGGGGSEVQLVESGGGLVKPGGSLRLSCAASGFTFSNYNMNWVRQAPGKGLEWVSSISSAGTHIYYADSVKGRFTISRDNAKNSLYLQMNSLRAEDTAVYYCARDPHSTGWYKDFDYWGQGTLVTVSSGGGGSGGGGSGGGGSGGGGSGGGGSGGGGSEVQLVESGGGVVQPGGSLRLSCAASGFTFSNYGMHWVRQAPGKGLEWVAVISNDGNTKTYADSVKGRFTISRDNSKNTLYLQMNSLRAEDTAVYYCAQDETTTVTASYYFDYWGQGTLVTVSSAAAHHHHHH
4,binds,TPP-969: PDA-6GS-HSA2-6GS-172E1-13-His (bispecific antibody) EVQLVESGGGLVQPGRSLRLSCAASGFTFDDYALHWVRQAPGKDLEWVSGISWNGGSYGYADSVKGRFTISRDNAKNSLYLQMNSLRAEDTALYYCVREKGPGLTGSTADYYGLDAWGQGTMVTVSSGGGGSGGGGSGGGGSGGGGSGGGGSGGGGSEVQLVESGGGLVKPGGSLRLSCAASGFTFSNYNMNWVRQAPGKGLEWVSSISSAGTHIYYADSVKGRFTISRDNAKNSLYLQMNSLRAEDTAVYYCARDPHSTGWYKDFDYWGQGTLVTVSSGGGGSGGGGSGGGGSGGGGSGGGGSGGGGSEVQLVESGGGVVQPGGSLRLSCAASGFTFSNYGMHWVRQAPGKGLEWVAVISNDGNTKTYADSVKGRFTISRDNSKNTLYLQMNSLRAEDTAVYYCAQDETTTVTASYYFDYWGQGTLVTVSSAAAHHHHHH
5,binds,TPP-983: CD137A -6GS-HSA2-6GS-PDA2-His (bispecific antibody) EVQLVESGGGLVQPGGSLRLSCAASGFTLSNYWMNWVRQAPGKGLEWVANINQDGSERYYVDSVKGRFTISRDNAKNSLYLQMNSLRAEDTAVYYCARGGEGYGVDHYGLDVSGQGTTVTVSSGGGGSGGGGSGGGGSGGGGSGGGGSGGGGSEVQLVESGGGLVKPGGSLRLSCAASGFTFSNYNMNWVRQAPGKGLEWVSSISSAGTHIYYADSVKGRFTISRDNAKNSLYLQMNSLRAEDTAVYYCARDPHSTGWYKDFDYWGQGTLVTVSSGGGGSGGGGSGGGGSGGGGSGGGGSGGGGSEVQLVESGGGVVRPGGSLRLSCAASGFTFDDYAMSWVRQAPGKGLEWVSGITWNAGSTGYADSVKGRFTISRDNAKNSLYLQMNSLRAEDTALYYCVRDKYSYAWSYDDFDIWGQGTMVTVSSAAAHHHHHH
6,binds,TPP-1027: CD137A -6GS-HSA2-6GS-PD138G7(G109D)-His (bispecific antibody) EVQLVESGGGLVQPGGSLRLSCAASGFTLSNYWMNWVRQAPGKGLEWVANINQDGSERYYVDSVKGRFTISRDNAKNSLYLQMNSLRAEDTAVYYCARGGEGYGVDHYGLDVSGQGTTVTVSSGGGGSGGGGSGGGGSGGGGSGGGGSGGGGSEVQLVESGGGLVKPGGSLRLSCAASGFTFSNYNMNWVRQAPGKGLEWVSSISSAGTHIYYADSVKGRFTISRDNAKNSLYLQMNSLRAEDTAVYYCARDPHSTGWYKDFDYWGQGTLVTVSSGGGGSGGGGSGGGGSGGGGSGGGGSGGGGSEVQLVESGGGVVRPGGSLRLSCAASGFTFDDYAMSWVRQAPGKGLEWVSGITWNGGSTGYADSVKDRFTISRDNAKNSLYLQMNSLRAEDTALYYCVRDKYSYAWSYDDFDIWGQGTMVTVSSAAAHHHHHH
7,binds,TPP-975: CD137D-6GS-PDA2-6GS-HSA2-His (bispecific antibody) EVQLVESGGGVVQPGGSLRLSCAASGFTFSNYGMHWVRQAPGKGLEWVAVISNDGNTKTYADSVKGRFTISRDNSKNTLYLQMNSLRAEDTAVYYCAQDETTTVTASYYFDYWGQGTLVTVSSGGGGSGGGGSGGGGSGGGGSGGGGSGGGGSEVQLVESGGGVVRPGGSLRLSCAASGFTFDDYAMSWVRQAPGKGLEWVSGITWNAGSTGYADSVKGRFTISRDNAKNSLYLQMNSLRAEDTALYYCVRDKYSYAWSYDDFDIWGQGTMVTVSSGGGGSGGGGSGGGGSGGGGSGGGGSGGGGSEVQLVESGGGLVKPGGSLRLSCAASGFTFSNYNMNWVRQAPGKGLEWVSSISSAGTHIYYADSVKGRFTISRDNAKNSLYLQMNSLRAEDTAVYYCARDPHSTGWYKDFDYWGQGTLVTVSSAAAHHHHHH
8,binds,TPP-1028: CD137A -6GS-HSA3-6GS-PD138G7(G109D)-His (bispecific antibody) EVQLVESGGGLVQPGGSLRLSCAASGFTLSNYWMNWVRQAPGKGLEWVANINQDGSERYYVDSVKGRFTISRDNAKNSLYLQMNSLRAEDTAVYYCARGGEGYGVDHYGLDVSGQGTTVTVSSGGGGSGGGGSGGGGSGGGGSGGGGSGGGGSEVQLLESGGGLVKPGGSLRLSCAASGFTVSSYTMNWVRQAPGKGLEWVSSISSSGRYIYYADSVKGRFTISRDNAKNSLYLQMNSLRAEDTAVYYCARDPRMVGNPHEFDIWGQGTMVTVSSGGGGSGGGGSGGGGSGGGGSGGGGSGGGGSEVQLVESGGGVVRPGGSLRLSCAASGFTFDDYAMSWVRQAPGKGLEWVSGITWNGGSTGYADSVKDRFTISRDNAKNSLYLQMNSLRAEDTALYYCVRDKYSYAWSYDDFDIWGQGTMVTVSSAAAHHHHHH
9,binds,TPP-973: CD137A -6GS-PDA2-6GS-HSA2-His (bispecific antibody) EVQLVESGGGLVQPGGSLRLSCAASGFTLSNYWMNWVRQAPGKGLEWVANINQDGSERYYVDSVKGRFTISRDNAKNSLYLQMNSLRAEDTAVYYCARGGEGYGVDHYGLDVSGQGTTVTVSSGGGGSGGGGSGGGGSGGGGSGGGGSGGGGSEVQLVESGGGVVRPGGSLRLSCAASGFTFDDYAMSWVRQAPGKGLEWVSGITWNAGSTGYADSVKGRFTISRDNAKNSLYLQMNSLRAEDTALYYCVRDKYSYAWSYDDFDIWGQGTMVTVSSGGGGSGGGGSGGGGSGGGGSGGGGSGGGGSEVQLVESGGGLVKPGGSLRLSCAASGFTFSNYNMNWVRQAPGKGLEWVSSISSAGTHIYYADSVKGRFTISRDNAKNSLYLQMNSLRAEDTAVYYCARDPHSTGWYKDFDYWGQGTLVTVSSAAAHHHHHH
10,binds,TPP-984: CD137D -6GS-HSA2-6GS-PDA-His (bispecific antibody) EVQLVESGGGVVQPGGSLRLSCAASGFTFSNYGMHWVRQAPGKGLEWVAVISNDGNTKTYADSVKGRFTISRDNSKNTLYLQMNSLRAEDTAVYYCAQDETTTVTASYYFDYWGQGTLVTVSSGGGGSGGGGSGGGGSGGGGSGGGGSGGGGSEVQLVESGGGLVKPGGSLRLSCAASGFTFSNYNMNWVRQAPGKGLEWVSSISSAGTHIYYADSVKGRFTISRDNAKNSLYLQMNSLRAEDTAVYYCARDPHSTGWYKDFDYWGQGTLVTVSSGGGGSGGGGSGGGGSGGGGSGGGGSGGGGSEVQLVESGGGLVQPGRSLRLSCAASGFTFDDYALHWVRQAPGKDLEWVSGISWNGGSYGYADSVKGRFTISRDNAKNSLYLQMNSLRAEDTALYYCVREKGPGLTGSTADYYGLDAWGQGTMVTVSSAAAHHHHHH
11,binds,TPP-972: CD137A-6GS-PDA-6GS-HSA2-His (bispecific antibody) EVQLVESGGGLVQPGGSLRLSCAASGFTLSNYWMNWVRQAPGKGLEWVANINQDGSERYYVDSVKGRFTISRDNAKNSLYLQMNSLRAEDTAVYYCARGGEGYGVDHYGLDVSGQGTTVTVSSGGGGSGGGGSGGGGSGGGGSGGGGSGGGGSEVQLVESGGGLVQPGRSLRLSCAASGFTFDDYALHWVRQAPGKDLEWVSGISWNGGSYGYADSVKGRFTISRDNAKNSLYLQMNSLRAEDTALYYCVREKGPGLTGSTADYYGLDAWGQGTMVTVSSGGGGSGGGGSGGGGSGGGGSGGGGSGGGGSEVQLVESGGGLVKPGGSLRLSCAASGFTFSNYNMNWVRQAPGKGLEWVSSISSAGTHIYYADSVKGRFTISRDNAKNSLYLQMNSLRAEDTAVYYCARDPHSTGWYKDFDYWGQGTLVTVSSAAAHHHHHH
12,binds,TPP-985: CD137D -6GS-HSA2-2-6GS-PDA2-His (bispecific antibody) EVQLVESGGGVVQPGGSLRLSCAASGFTFSNYGMHWVRQAPGKGLEWVAVISNDGNTKTYADSVKGRFTISRDNSKNTLYLQMNSLRAEDTAVYYCAQDETTTVTASYYFDYWGQGTLVTVSSGGGGSGGGGSGGGGSGGGGSGGGGSGGGGSEVQLVESGGGLVKPGGSLRLSCAASGFTFSNYNMNWVRQAPGKGLEWVSSISSAGTHIYYADSVKGRFTISRDNAKNSLYLQMNSLRAEDTAVYYCARDPHSTGWYKDFDYWGQGTLVTVSSGGGGSGGGGSGGGGSGGGGSGGGGSGGGGSEVQLVESGGGVVRPGGSLRLSCAASGFTFDDYAMSWVRQAPGKGLEWVSGITWNAGSTGYADSVKGRFTISRDNAKNSLYLQMNSLRAEDTALYYCVRDKYSYAWSYDDFDIWGQGTMVTVSSAAAHHHHHH
13,binds,TPP-982: CD137A -6GS-HSA2-6GS-PDA-His (bispecific antibody) EVQLVESGGGLVQPGGSLRLSCAASGFTLSNYWMNWVRQAPGKGLEWVANINQDGSERYYVDSVKGRFTISRDNAKNSLYLQMNSLRAEDTAVYYCARGGEGYGVDHYGLDVSGQGTTVTVSSGGGGSGGGGSGGGGSGGGGSGGGGSGGGGSEVQLVESGGGLVKPGGSLRLSCAASGFTFSNYNMNWVRQAPGKGLEWVSSISSAGTHIYYADSVKGRFTISRDNAKNSLYLQMNSLRAEDTAVYYCARDPHSTGWYKDFDYWGQGTLVTVSSGGGGSGGGGSGGGGSGGGGSGGGGSGGGGSEVQLVESGGGLVQPGRSLRLSCAASGFTFDDYALHWVRQAPGKDLEWVSGISWNGGSYGYADSVKGRFTISRDNAKNSLYLQMNSLRAEDTALYYCVREKGPGLTGSTADYYGLDAWGQGTMVTVSSAAAHHHHHH
